According to the supplement of paper PMC10849652:
This is one part of the list.

Protein sequences, listed by entry. Tags and fused reporters are not part of them. Lines headed by an entry give the natural chain unless they say otherwise; changes in a name come on top.
UniProt P48449: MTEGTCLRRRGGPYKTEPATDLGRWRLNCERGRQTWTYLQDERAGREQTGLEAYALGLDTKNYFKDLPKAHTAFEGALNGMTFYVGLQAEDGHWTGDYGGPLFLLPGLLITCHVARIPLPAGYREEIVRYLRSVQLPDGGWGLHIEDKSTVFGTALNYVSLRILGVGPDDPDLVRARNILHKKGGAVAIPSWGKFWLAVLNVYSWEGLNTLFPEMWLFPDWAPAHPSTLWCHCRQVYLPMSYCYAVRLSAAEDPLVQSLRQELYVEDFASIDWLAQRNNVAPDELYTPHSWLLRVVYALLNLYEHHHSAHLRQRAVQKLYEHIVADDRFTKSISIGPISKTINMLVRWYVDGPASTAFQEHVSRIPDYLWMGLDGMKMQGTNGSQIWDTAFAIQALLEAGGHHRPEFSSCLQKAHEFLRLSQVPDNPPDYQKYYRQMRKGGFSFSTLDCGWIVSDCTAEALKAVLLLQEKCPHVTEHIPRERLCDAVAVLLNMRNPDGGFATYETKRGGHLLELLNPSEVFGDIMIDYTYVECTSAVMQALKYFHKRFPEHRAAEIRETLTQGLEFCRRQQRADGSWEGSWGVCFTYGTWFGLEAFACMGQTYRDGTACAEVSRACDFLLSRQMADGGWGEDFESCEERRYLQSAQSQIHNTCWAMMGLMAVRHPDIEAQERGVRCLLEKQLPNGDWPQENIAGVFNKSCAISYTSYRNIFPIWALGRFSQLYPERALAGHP
UniProt Q9Y6D9: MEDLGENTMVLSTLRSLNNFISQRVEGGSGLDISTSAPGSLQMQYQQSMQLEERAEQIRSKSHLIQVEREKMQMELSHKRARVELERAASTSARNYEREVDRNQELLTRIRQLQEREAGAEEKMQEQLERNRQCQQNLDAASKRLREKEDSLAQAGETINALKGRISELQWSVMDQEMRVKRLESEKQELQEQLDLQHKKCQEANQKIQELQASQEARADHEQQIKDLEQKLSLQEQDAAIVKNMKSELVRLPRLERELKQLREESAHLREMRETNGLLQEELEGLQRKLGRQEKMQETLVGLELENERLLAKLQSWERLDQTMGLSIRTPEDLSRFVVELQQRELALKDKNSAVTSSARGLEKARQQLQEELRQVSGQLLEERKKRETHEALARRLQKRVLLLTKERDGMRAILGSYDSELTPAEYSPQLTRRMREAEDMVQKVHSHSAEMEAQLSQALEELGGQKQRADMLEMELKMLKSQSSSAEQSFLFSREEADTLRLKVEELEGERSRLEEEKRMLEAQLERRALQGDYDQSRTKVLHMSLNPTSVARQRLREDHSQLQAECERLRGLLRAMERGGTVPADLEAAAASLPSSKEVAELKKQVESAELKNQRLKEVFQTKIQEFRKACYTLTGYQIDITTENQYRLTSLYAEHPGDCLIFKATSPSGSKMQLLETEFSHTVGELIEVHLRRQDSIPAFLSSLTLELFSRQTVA
UniProt Q9Y4K4: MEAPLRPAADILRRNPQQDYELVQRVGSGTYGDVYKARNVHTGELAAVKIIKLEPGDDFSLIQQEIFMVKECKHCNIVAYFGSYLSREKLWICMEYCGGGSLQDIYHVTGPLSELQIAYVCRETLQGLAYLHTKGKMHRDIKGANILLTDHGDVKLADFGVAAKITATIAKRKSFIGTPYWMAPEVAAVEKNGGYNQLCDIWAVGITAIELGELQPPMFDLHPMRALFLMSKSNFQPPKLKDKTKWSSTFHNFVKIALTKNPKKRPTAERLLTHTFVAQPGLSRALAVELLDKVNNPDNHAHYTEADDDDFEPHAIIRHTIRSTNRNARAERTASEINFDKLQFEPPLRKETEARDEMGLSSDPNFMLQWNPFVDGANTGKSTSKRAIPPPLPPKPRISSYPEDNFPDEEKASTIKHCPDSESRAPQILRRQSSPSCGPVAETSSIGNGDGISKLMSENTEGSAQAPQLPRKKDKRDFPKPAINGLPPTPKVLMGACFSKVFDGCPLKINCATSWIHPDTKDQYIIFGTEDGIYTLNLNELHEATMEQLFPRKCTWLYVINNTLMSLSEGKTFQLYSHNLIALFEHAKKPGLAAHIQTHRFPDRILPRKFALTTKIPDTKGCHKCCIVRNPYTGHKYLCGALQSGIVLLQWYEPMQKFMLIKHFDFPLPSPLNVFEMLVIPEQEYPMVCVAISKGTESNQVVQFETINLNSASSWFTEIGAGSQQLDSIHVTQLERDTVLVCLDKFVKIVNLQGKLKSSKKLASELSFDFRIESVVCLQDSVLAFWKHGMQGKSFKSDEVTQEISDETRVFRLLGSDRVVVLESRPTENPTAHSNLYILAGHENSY
UniProt Q86UD3: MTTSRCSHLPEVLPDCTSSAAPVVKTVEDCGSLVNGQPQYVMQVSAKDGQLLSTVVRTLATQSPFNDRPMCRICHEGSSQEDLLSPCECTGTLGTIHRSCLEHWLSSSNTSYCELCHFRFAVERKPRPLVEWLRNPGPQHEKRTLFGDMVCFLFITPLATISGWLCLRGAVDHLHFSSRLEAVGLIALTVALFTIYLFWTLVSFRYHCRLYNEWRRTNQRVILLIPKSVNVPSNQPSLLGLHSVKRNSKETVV
UniProt O95372: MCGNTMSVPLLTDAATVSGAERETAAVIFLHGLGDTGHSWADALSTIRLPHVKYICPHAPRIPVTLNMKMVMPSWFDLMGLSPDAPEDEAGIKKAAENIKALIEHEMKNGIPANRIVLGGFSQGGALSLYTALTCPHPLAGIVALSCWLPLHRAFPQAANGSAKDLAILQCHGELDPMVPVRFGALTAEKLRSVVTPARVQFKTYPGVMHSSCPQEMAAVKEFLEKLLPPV
UniProt Q96AG4: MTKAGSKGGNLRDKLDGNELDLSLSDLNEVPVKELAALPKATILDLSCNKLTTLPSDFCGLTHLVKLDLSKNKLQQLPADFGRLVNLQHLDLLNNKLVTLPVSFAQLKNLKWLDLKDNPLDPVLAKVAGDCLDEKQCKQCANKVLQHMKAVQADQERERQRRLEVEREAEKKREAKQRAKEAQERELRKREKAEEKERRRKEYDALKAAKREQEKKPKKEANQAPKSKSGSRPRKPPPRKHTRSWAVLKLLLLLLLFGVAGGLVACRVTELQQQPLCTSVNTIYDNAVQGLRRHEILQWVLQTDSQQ
UniProt Q8IWT6: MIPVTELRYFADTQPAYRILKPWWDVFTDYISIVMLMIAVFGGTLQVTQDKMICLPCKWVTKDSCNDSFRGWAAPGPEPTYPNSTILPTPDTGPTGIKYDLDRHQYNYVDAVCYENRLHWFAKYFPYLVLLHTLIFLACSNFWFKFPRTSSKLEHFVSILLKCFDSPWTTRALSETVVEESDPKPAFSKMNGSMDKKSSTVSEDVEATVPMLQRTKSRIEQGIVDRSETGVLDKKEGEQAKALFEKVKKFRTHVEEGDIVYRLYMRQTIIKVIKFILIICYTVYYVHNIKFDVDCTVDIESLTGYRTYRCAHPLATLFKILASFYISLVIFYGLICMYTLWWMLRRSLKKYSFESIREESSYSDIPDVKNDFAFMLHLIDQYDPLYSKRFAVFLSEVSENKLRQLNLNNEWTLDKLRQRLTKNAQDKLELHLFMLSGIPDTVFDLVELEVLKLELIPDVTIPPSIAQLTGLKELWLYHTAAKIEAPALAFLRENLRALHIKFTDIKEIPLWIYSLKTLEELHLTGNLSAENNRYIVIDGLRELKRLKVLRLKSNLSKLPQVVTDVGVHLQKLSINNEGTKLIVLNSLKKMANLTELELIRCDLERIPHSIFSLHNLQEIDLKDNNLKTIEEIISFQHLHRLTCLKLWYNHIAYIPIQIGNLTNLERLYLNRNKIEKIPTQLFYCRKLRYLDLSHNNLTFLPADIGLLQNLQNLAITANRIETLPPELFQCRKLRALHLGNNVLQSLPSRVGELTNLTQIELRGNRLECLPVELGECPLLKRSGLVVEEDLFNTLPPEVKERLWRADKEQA
UniProt Q9UK45: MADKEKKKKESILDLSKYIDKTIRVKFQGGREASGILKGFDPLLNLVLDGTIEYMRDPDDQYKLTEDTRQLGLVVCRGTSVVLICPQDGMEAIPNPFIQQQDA
UniProt O15479: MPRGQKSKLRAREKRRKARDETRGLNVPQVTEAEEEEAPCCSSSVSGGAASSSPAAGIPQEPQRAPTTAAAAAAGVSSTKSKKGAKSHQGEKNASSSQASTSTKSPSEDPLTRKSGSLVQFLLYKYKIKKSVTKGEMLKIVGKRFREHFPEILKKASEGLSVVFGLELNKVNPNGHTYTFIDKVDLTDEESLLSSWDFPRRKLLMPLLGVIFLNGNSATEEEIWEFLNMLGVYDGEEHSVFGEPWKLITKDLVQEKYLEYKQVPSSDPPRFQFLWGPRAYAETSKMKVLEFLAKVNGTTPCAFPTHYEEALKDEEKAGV
UniProt Q9NU23: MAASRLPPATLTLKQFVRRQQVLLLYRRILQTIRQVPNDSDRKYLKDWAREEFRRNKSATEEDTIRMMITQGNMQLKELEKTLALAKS
UniProt Q96A72, whole entry, looked up: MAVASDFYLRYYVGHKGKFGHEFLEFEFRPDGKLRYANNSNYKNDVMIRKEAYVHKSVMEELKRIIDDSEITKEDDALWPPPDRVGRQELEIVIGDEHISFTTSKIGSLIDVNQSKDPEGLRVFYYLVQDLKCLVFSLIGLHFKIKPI
UniProt P09960: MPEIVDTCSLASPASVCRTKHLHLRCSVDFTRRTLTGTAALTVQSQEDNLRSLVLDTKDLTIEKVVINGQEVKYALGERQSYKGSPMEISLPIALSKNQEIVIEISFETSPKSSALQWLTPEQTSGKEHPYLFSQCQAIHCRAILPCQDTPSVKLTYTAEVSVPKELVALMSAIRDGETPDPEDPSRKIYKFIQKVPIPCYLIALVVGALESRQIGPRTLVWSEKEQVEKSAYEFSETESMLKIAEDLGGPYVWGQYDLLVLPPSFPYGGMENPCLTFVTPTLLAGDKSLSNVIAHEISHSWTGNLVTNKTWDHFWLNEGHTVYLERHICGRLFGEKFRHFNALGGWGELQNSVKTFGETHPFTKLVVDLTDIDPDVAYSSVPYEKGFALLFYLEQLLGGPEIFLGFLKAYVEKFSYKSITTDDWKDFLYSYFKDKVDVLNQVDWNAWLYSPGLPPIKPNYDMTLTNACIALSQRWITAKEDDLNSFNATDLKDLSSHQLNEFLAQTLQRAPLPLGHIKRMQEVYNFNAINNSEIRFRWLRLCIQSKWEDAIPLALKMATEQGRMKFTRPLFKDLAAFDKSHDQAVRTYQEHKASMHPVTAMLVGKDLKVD
UniProt Q9UKM7: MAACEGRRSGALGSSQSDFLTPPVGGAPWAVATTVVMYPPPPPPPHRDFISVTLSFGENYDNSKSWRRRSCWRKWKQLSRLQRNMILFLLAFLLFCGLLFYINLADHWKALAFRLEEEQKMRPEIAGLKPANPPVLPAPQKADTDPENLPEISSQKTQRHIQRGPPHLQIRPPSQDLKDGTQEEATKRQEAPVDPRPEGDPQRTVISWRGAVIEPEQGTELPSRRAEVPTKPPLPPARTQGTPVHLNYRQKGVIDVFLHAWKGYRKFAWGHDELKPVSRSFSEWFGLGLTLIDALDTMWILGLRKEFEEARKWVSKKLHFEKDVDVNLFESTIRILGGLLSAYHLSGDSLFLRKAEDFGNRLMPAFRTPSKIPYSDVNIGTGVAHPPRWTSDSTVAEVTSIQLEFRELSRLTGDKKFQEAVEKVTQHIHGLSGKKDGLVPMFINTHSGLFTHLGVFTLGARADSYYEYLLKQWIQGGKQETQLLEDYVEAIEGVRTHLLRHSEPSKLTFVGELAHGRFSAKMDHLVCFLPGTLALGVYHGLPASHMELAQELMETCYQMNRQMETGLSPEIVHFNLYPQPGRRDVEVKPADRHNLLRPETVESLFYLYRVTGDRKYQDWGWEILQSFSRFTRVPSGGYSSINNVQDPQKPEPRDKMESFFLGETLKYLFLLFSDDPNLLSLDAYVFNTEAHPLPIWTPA
UniProt Q9UPY8, whole entry, looked up: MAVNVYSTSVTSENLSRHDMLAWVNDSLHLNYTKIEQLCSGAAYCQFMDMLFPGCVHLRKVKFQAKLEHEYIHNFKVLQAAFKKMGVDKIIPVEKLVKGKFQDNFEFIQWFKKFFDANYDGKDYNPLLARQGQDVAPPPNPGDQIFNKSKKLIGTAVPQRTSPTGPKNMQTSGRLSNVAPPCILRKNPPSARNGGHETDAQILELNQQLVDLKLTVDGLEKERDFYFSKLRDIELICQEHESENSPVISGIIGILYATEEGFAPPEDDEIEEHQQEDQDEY
UniProt P53778: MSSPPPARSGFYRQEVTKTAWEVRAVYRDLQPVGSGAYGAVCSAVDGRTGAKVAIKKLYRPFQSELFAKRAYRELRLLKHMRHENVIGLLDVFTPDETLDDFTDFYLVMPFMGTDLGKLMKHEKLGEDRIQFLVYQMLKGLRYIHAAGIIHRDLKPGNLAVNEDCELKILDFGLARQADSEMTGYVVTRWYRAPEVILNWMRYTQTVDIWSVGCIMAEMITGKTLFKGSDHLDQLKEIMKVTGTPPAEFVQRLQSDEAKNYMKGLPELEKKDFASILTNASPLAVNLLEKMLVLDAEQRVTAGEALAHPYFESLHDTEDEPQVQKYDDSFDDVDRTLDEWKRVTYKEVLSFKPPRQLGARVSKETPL
UniProt P62312: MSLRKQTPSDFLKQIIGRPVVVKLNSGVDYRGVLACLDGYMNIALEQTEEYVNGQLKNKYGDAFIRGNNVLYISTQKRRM

Legend:
Test in all cases: log2 fold change, soluble protein after heating vs DMSO (PISA); higher = thermal stabilisation; K562 cells, 10 uM, 30 min; active = over 0.2 and 3.5 SD of the protein, either way, in both replicates (recomputed)
[1] = compound: C1=CC=C(C=C1)[C@H](COC2=CC3=C(C=C2)NC(=O)N3)NC(=O)C4=CC=CN(C4=O)CC5=CC(=C(C=C5)F)F
Summary of the method: (§1)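 K562 cells at 2×10^6 cells/mL were exposed to 10 μM compound for 30 min, then aliquots were heated for 3 min across 48°C-58°C, pooled, and extracted in PBS containing 0.5% NP-40 at 4°C. The supernatant after 21,000xg for 90 min was taken as soluble protein and measured by TMTpro 16plex LC-MS/MS with channel sums equalised. Thermal stability is reported relative to control samples, with values from duplicates. Fold changes are given on a log2 scale.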

[2] = compound: CC1=C(SC2=C1C(=N[C@H](C3=NN=C(N32)C)CC(=O)N)C4=CC=C(C=C4)Cl)C
Summary of the method: as §1

[3] = compound: CC1=C2C(=CC=C1)N=C(N(C2=O)C3=CC=CC=C3C)CN4C=NC5=C(N=CN=C54)N
Summary of the method: as §1

[4] = compound: Cc1sc2c(c1C)C(c1ccc(Cl)cc1)=N[C@@H](CC(=O)OC(C)(C)C)c1nnc(C)n1-2
Summary of the method: as §1

[5] = compound: c1ccc([C@@H]2C[C@H]2NC2CCNCC2)cc1
Summary of the method: as §1

Measured: log2 fold change

MACC1 (UniProt Q6ZN28)
inactive: [1] 0.049 | [2] 0.011 | [3] -0.053 | [4] 0.034 | [5] -0.11

LSS (UniProt P48449)
inactive: [1] -0.077 | [2] 0.059 | [3] 0.127 | [4] -0.018 | [5] 0.087

MAD1L1 (UniProt Q9Y6D9)
inactive: [1] -0.018 | [2] 0.008 | [3] 0.206 | [4] -0.045 | [5] 0.2

MALSU1 (UniProt Q96EH3)
inactive: [1] 0.05 | [2] 0.21 | [3] 0.081 | [4] 0.005 | [5] 0.03

MAP4K5 (UniProt Q9Y4K4)
inactive: [1] 0.055 | [2] -0.039 | [3] 0.107 | [4] 0.05 | [5] 0.062

MARCHF3 (UniProt Q86UD3)
inactive: [1] -0.096

MAP4 isoform 5 (UniProt P27816)
inactive: [1] 0.077

LYZ (UniProt P61626)
inactive: [1] 0.196 | [2] -0.017 | [3] -0.431 | [4] 0.092 | [5] 0.207

MAD2L1 (UniProt Q13257)
inactive: [1] -0.045 | [2] 0.077 | [3] 0.067 | [4] -0.021 | [5] -0.019

LYPLA2 (UniProt O95372)
inactive: [1] 0.033 | [2] 0.056 | [3] -0.023 | [4] -0.161 | [5] -0.08

MAN1A2 (UniProt O60476)
inactive: [1] 0.017 | [2] -0.034 | [3] 0.008 | [4] -0.001 | [5] 0.043

MAN1A1 (UniProt P33908)
inactive: [1] 0.042 | [2] -0.028 | [3] 0.087 | [4] 0.009 | [5] 0.021

MAP1LC3B2 (UniProt A6NCE7)
inactive: [1] 0.015 | [2] 0.113 | [3] 0.021 | [4] -0.015 | [5] -0.073

LYAR (UniProt Q9NX58)
inactive: [1] 0.131 | [2] -0.411 | [3] -0.435 | [4] 0.255 | [5] 0.021

LYSMD2 (UniProt Q8IV50)
inactive: [1] -0.019 | [2] 0.073 | [3] 0.037 | [4] -0.005 | [5] 0.017

LYSMD3 (UniProt Q7Z3D4)
inactive: [1] 0.046 | [2] -0.071 | [3] 0.087 | [4] 0.093 | [5] -0.076

MAP7D1 (UniProt Q3KQU3)
inactive: [1] 0.068 | [2] -0.214 | [3] -0.133 | [4] 0.244 | [5] 0.023

MAP4 (UniProt P27816)
inactive: [1] 0.028 | [2] -0.017 | [3] -0.058 | [4] 0.003 | [5] 0.037

LRRC59 (UniProt Q96AG4)
inactive: [1] -0.022 | [2] 0.015 | [3] 0.01 | [4] -0.008 | [5] -0.011

MAP3K2 (UniProt Q9Y2U5)
inactive: [1] 0.273 | [2] 0.002 | [3] 0.198 | [4] -0.035 | [5] -0.123

MAGED2 (UniProt Q9UNF1)
inactive: [1] 0.002 | [2] 0.21 | [3] 0.111 | [4] -0.035 | [5] -0.029

MAGT1 (UniProt Q9H0U3)
inactive: [1] 0.042 | [2] -0.006 | [3] 0.005 | [4] 0.034 | [5] 0.004

MAEA (UniProt Q7L5Y9)
inactive: [1] -0.003 | [2] 0.021 | [3] 0.044 | [4] 0.001 | [5] 0.021

LSM14B (UniProt Q9BX40)
inactive: [1] -0.066 | [2] 0.03 | [3] 0.03 | [4] 0.099 | [5] -0.155

MAPK14 isoform 2 (UniProt Q16539)
inactive: [1] -0.067 | [2] 0.139 | [3] 0.077 | [4] -0.011 | [5] -0.043

LRRC8B (UniProt Q6P9F7)
inactive: [1] -0.003

LTBP1 isoform 4 (UniProt Q14766)
inactive: [1] -0.135 | [2] 0.148 | [3] 0.072 | [4] -0.079 | [5] 0.011

LTN1 isoform 3 (UniProt O94822)
inactive: [1] -0.058 | [2] 0.015 | [3] 0.08 | [4] -0.003 | [5] -0.005

LYPLAL1 (UniProt Q5VWZ2)
inactive: [1] -0.052 | [2] 0.089 | [3] 0.067 | [4] -0.055 | [5] -0.111

MAPK9 (UniProt P45984)
inactive: [1] 0.015 | [2] 0.015 | [3] 0.039 | [4] -0.042 | [5] 0.004

LRRC8A (UniProt Q8IWT6)
inactive: [1] 0.039 | [2] 0 | [3] -0.061 | [4] 0.051 | [5] -0.01

MAPRE2 (UniProt Q15555)
inactive: [1] -0.337 | [2] -0.028 | [3] -0.228 | [4] -0.068 | [5] -0.011

LSM7 (UniProt Q9UK45)
inactive: [1] -0.015 | [2] 0.042 | [3] 0.033 | [4] -0.023 | [5] -0.002

MAP2K3 isoform 3 (UniProt P46734)
inactive: [1] -0.091 | [2] -0.051 | [3] 0.05 | [4] 0.026 | [5] 0.016

LYSMD1 (UniProt Q96S90)
inactive: [1] -0.019 | [2] 0.028 | [3] 0.058 | [4] 0.021 | [5] 0.029

LRRFIP2 (UniProt Q9Y608)
inactive: [1] 0.058 | [2] 0.01 | [3] 0.007 | [4] 0.014 | [5] 0.06

MAGEB2 (UniProt O15479)
inactive: [1] 0.112 | [2] -0.213 | [3] -0.208 | [4] 0.157 | [5] 0.061

LRSAM1 (UniProt Q6UWE0)
inactive: [1] 0.057 | [2] 0.038 | [3] 0.046 | [4] 0.001 | [5] -0.004

LYRM2 (UniProt Q9NU23)
inactive: [1] 0.044 | [2] 0.098 | [3] 0.144 | [4] -0.066 | [5] 0

MAGOHB (UniProt Q96A72)
inactive: [1] 0.02 | [2] 0.042 | [3] 0.079 | [4] -0.153 | [5] -0.129

LUC7L (UniProt Q9NQ29)
inactive: [1] 0.011 | [2] -0.015 | [3] -0.011 | [4] 0 | [5] 0.027

Pulled one by one from the list above, 5 records:
LRRC8A (UniProt Q8IWT6)
inactive: [1] 0.039 | [2] 0 | [3] -0.061 | [4] 0.051 | [5] -0.01

LRRC59 (UniProt Q96AG4)
inactive: [1] -0.022 | [2] 0.015 | [3] 0.01 | [4] -0.008 | [5] -0.011

MAP7D1 (UniProt Q3KQU3)
inactive: [1] 0.068 | [2] -0.214 | [3] -0.133 | [4] 0.244 | [5] 0.023

MAP2K3 isoform 3 (UniProt P46734)
inactive: [1] -0.091 | [2] -0.051 | [3] 0.05 | [4] 0.026 | [5] 0.016

LYPLAL1 (UniProt Q5VWZ2)
inactive: [1] -0.052 | [2] 0.089 | [3] 0.067 | [4] -0.055 | [5] -0.111

Additional records follow.

MAP3K4 isoform 2 (UniProt Q9Y6R4)
inactive: [1] -0.047 | [2] 0.026 | [3] 0.057 | [4] -0.034 | [5] 0.018

LTA4H (UniProt P09960)
inactive: [1] -0.024 | [2] 0.128 | [3] 0.053 | [4] 0.01 | [5] -0.067

MAGEC2 (UniProt Q9UBF1)
inactive: [1] 0.043 | [2] -0.069 | [3] 0.005 | [4] 0.009 | [5] 0.054

MAN1B1 (UniProt Q9UKM7)
inactive: [1] 0 | [2] 0.021 | [3] 0.108 | [4] -0.017 | [5] -0.064

MAD2L1BP isoform 3 (UniProt Q15013)
inactive: [1] -0.01 | [2] 0.008 | [3] -0.011 | [4] 0.016 | [5] 0.066

MAPRE3 (UniProt Q9UPY8)
inactive: [1] -0.042 | [2] 0.011 | [3] 0.026 | [4] -0.01 | [5] -0.014

MAIP1 (UniProt Q8WWC4)
inactive: [1] 0.012 | [2] 0.075 | [3] 0.028 | [4] -0.026 | [5] 0.002

MARCKS (UniProt P29966)
inactive: [1] 0 | [2] -0.046 | [3] -0.066 | [4] -0.065 | [5] 0.031

MAPK12 (UniProt P53778)
inactive: [1] -0.022 | [2] 0.017 | [3] 0.026 | [4] 0.008 | [5] -0.002

LYRM7 (UniProt Q5U5X0)
inactive: [1] 0.03 | [2] 0.038 | [3] -0.017 | [4] -0.026 | [5] -0.028

LSM6 (UniProt P62312)
inactive: [1] 0.044 | [2] 0.018 | [3] -0.069 | [4] -0.05 | [5] -0.042

MAGEA9 (UniProt P43362)
inactive: [1] 0.046 | [2] -0.03 | [3] 0.047 | [4] -0.055 | [5] -0.067

MAPK8 isoform 3 (UniProt P45983)
inactive: [1] -0.007 | [2] 0.151 | [3] 0.072 | [4] 0.061 | [5] -0.055

LRRFIP1 (UniProt Q32MZ4)
inactive: [1] 0.019 | [2] 0.036 | [3] -0.016 | [4] 0.023 | [5] 0.011
